The exact form of at least one protein or probe is not confirmed. At least one verdict was read from the data and is not stated in words by the source. Tags and fusion partners may be left off the protein sequences shown.
Molecular target: T1, ABI5 (UniProt Q9SJN0)
T1 sequence (looked up, limits assumed): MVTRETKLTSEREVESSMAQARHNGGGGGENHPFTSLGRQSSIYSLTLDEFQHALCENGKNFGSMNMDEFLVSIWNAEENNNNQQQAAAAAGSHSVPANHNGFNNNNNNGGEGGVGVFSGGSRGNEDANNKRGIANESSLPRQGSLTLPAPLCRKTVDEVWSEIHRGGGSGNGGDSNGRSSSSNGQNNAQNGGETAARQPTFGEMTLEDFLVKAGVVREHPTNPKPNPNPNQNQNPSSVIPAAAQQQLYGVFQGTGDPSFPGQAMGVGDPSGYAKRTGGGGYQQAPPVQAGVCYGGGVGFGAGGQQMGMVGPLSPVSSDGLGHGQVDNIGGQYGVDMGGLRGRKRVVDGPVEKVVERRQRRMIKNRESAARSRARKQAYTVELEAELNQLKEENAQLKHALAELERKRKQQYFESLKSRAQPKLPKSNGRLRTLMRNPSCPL
Test: EMSA
Details: 10 mM Tris pH 8, 1 mM EDTA, 100 mM NaCl, 2 mM DTT (reducing), 10% glycerol, 0.5 ug poly(dI-dC), BSA, 10 ng probe, 1.5 ug protein, 30 min on ice, 6% PAGE 0.5x TBE, recombinant protein, protein details: N-terminal 6xHis (pET-28a+), label: biotin

Measured: binding result

GATCCTCTCGCGTACAATAAAGTCAGACACGTGGCATGTCACCAACGTAGCGTATGCGTA (double strand) [ABRE probe]
binds: non-reducing, 1 mM GSNO (S-nitrosylation) | non-reducing, no GSNO | reducing conditions (DTT)
